Source: PMC12112590
These are yes or no findings as the source states them, for the method shown. Some binding calls cover weakened binding; strength is not graded here. Sequences can lack the tags named with a protein.

Protein sequences, listed by entry. Tags and fused reporters are not part of them. Lines headed by an entry give the natural chain unless they say otherwise; changes in a name come on top.
UniProt P04050: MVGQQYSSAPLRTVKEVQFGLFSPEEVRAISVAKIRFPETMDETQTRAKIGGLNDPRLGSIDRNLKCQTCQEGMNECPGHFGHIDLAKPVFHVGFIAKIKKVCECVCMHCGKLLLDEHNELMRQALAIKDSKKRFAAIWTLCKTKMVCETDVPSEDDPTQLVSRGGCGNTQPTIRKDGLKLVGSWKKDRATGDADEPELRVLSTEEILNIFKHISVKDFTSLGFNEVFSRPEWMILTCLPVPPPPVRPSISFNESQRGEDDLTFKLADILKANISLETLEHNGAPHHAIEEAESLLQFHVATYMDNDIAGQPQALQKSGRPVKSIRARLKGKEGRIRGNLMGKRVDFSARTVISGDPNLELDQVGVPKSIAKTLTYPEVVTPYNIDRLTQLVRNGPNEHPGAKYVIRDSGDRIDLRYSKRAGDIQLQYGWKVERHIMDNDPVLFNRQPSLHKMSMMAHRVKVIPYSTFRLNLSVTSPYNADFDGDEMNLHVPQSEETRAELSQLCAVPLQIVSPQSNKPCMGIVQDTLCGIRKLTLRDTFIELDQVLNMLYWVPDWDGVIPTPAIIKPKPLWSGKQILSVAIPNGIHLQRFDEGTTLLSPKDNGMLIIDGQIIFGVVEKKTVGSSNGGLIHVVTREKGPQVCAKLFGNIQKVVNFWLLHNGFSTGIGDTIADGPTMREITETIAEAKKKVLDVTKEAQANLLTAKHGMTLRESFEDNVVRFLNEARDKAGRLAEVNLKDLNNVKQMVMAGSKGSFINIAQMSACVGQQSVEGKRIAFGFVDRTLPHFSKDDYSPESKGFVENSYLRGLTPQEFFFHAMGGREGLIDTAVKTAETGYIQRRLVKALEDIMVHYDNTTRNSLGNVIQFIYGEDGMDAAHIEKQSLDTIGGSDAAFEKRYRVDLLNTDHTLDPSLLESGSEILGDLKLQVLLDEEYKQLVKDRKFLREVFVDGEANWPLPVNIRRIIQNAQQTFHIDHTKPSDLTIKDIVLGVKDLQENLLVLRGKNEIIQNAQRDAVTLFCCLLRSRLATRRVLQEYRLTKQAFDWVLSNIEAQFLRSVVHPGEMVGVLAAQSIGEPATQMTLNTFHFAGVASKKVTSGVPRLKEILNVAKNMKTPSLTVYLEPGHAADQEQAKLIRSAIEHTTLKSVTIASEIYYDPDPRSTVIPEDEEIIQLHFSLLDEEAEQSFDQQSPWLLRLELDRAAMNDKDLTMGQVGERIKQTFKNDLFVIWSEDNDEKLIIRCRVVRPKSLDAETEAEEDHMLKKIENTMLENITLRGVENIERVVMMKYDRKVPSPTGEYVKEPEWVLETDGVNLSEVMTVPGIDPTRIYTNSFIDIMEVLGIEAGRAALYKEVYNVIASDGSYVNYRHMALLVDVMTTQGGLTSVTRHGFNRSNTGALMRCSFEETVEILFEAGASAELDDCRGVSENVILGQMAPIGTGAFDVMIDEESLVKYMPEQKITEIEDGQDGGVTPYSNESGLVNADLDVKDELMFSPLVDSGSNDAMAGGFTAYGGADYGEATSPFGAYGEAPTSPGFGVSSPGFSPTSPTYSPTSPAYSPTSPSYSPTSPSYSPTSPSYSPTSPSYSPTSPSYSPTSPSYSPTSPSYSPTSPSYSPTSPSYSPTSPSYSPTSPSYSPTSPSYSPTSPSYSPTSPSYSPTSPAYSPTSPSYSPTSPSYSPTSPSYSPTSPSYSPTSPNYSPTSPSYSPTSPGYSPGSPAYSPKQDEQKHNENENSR

Experiments:
[1] = biological target: T1, human NDF central portion (amino acids 101–226), His6-tagged truncation (human) (UniProt Q49A26); assay: pull-down; 40 pmol His6-tagged NDF truncate or mutant captured on Ni-NTA beads with 20 pmol yeast or human Pol II in 300 μL; 10 mM Tris-HCl pH 7.5, 200 mM NaCl, 0.2% Nonidet P-40, 10% glycerol; 4 °C, 3 h; SDS-PAGE with Coomassie blue or silver staining (yeast Pol II) or Western blot (human Pol II); both purified
T1 sequence: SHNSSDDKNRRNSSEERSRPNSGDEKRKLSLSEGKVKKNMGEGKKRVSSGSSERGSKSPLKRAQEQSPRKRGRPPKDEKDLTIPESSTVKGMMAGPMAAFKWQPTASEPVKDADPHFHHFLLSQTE

[2] = biological target: T2, human NDF N-terminal PWWP domain (amino acids 1–91), His6-tagged truncation (human) (UniProt Q49A26); assay: as above
T2 sequence: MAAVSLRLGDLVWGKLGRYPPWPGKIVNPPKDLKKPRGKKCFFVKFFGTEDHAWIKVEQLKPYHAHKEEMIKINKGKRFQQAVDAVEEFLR

binding [1]: binds
binding [2]: binds
Substance: S. cerevisiae RNA Polymerase II (Pol II) (from UniProt P04050 1-1733; P08518 1-1224; P16370 1-318; P20433 1-221; P20434 1-215; P20435 1-155; P34087 1-171; P20436 1-146; P27999 1-122; P22139 1-70; P38902 1-120; P40422 1-70) (complex)
